Test results taken from patent US11857551B1, “Methods for the prevention and treatment of hearing loss” (Ting Therapeutics LLC, priority 2020, dated 2024).

Tested on: HEI-OC1 cells
Test: Caspase-Glo 3/7 assay in cisplatin-treated HEI-OC1 cells
Conditions: Mus musculus, HEI-OC1, read-out: calculated IC50 (percent protection dose response, caspase 3/7)

CSc1ccc2c(c1)N(CCC1CCCCN1C)c1ccccc1S2 (stereo not shown) [thioridazine]
IC50: 30.8 µM
